# Experimental data taken from the supplement of paper PMC8728848.
# Some of the results follow.
# B1: RetS (Pseudomonas aeruginosa), Q9HUV7 (protein)
# chain: MVRLRIAIGLLVSFLLLLLGPMSPAVADDAGVSSVPLQTTATTPSANQNWRLLRDESAQLRIADVLQRKEQFRPLAKRSFIFPASPQAVWLQVQLPAQKVPSWLWIFAPRVQYLDYYLVQDGQLVRDQHTGESRPFQERPLPSRSYLFSLPVDGKPMTLYVRMTSNHPLMAWFDQIDEAGLVGLEKPAYAFGMLLGGMLLLLMYNLIRFAYSRSASSLWLAAVHAALAVCAAANLGLVAFWLPGLKFNQSLTADLGALGAAVSLLWFACSFFRGTAESRLNRLLQGEALLILAVGAIIAFTQQLWFSWLIYLLVILSSLSVPLIAAWHWYRGYQPARLIVAGMIVFNAGFMVFLPVLFGTKQLDPGWLVLGVFSFATLAGLVLSVSLTERQRLIQQLNLQQRTSEAAHTAELQTKAEFLAKISHEIRTPMNGVLGMTELLLGTPLSAKQRDYVQTIHSAGNELLTLINEILDISKLESGQIELDEVQFDLNALIEDCLDIFRVKAEQQRIELISFTQPQVPRVIGGDPTRLRQVVLSLLDNAFKQTEEGEILLVVALDDQGETPRLRIAVQDSGHPFDAKEREALLTAELHSGDFLSASKLGSHLGLIIARQLVRLMGGEFGIQSGSSQGTTLSLTLPLDPQQLENPTADLDGPLQGARLLVVDDNETCRKVLVQQCSGWGLNVSAVSSGKEALAQLRTKAHLREYFDVVLLDQDMPGMTGMQLAAKIKEDPNLNHDILLIMLTGISNAPSKIIARNAGIKRILAKPVAGYTLKATLADELAQRGVSGVTNYLQPAKEAQAPSLPSDFRILVAEDNSISTKVIRGMLNKLNLQPDTASNGQEALSAMKATQYDLVLMDCEMPVLDGFSATEQLRAWEAHEQRPHTPVVALTAHILSEHKERARLVGMDGHMAKPVELSQLRELIAYWVGERDRRRQGDALPS
# Tests used:
# Assay in all cases: glycan array binding signal (z-score within array); higher = stronger binding
# Details in all cases: glycan notation: IUPAC condensed, linker removed
# [1] = molecular target: Gal(a1-3)Gal
# How it was run: (§1)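 Negative Z-scores can be read as non-binding. The Z-score is calculated within each array and then averaged across arrays of one protein sequence at different concentrations or buffers and across linkers. Arrays, 3228 in all, were curated from the Consortium for Functional Glycomics database and kept only where the protein sequence was available.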
# [2] = molecular target: Gal(a1-3)Gal(b1-3)GlcNAc
# How it was run: as §1
# [3] = molecular target: Gal(a1-3)Gal(b1-3)GlcNAc(b1-2)Man(a1-3)[Gal(a1-3)Gal(b1-3)GlcNAc(b1-2)Man(a1-6)]Man(b1-4)GlcNAc(b1-4)GlcNAc
# How it was run: as §1
# [4] = molecular target: Gal(a1-3)Gal(b1-3)GlcNAc(b1-3)GalNAc
# How it was run: as §1
# [5] = molecular target: Gal(a1-3)Gal(b1-3)[Fuc(a1-4)]GlcNAc(b1-2)Man(a1-3)[Gal(a1-3)Gal(b1-3)[Fuc(a1-4)]GlcNAc(b1-2)Man(a1-6)]Man(b1-4)GlcNAc(b1-4)GlcNAc
# How it was run: as §1
# [6] = molecular target: Gal(a1-3)Gal(b1-4)Glc
# How it was run: as §1
# [7] = molecular target: Gal(a1-3)Gal(b1-4)GlcNAc
# How it was run: as §1
# [8] = molecular target: Gal(a1-3)Gal(b1-4)GlcNAc(b1-3)GalNAc
# How it was run: as §1
# [9] = molecular target: Gal(a1-3)Gal(b1-4)[Fuc(a1-3)]GlcNAc
# How it was run: as §1
# [10] = molecular target: Gal(a1-3)Gal(b1-4)[Fuc(a1-3)]GlcNAc(b1-2)Man(a1-3)[Gal(a1-3)Gal(b1-4)[Fuc(a1-3)]GlcNAc(b1-2)Man(a1-6)]Man(b1-4)GlcNAc(b1-4)GlcNAc
# How it was run: as §1
# [11] = molecular target: Gal(a1-3)GalNAc
# How it was run: as §1
# [12] = molecular target: Gal(a1-3)[Gal(a1-4)]Gal(b1-4)GlcNAc
# How it was run: as §1
# [13] = molecular target: Gal(a1-4)Gal(b1-3)GlcNAc(b1-2)Man(a1-3)[Gal(a1-4)Gal(b1-3)GlcNAc(b1-2)Man(a1-6)]Man(b1-4)GlcNAc(b1-4)GlcNAc
# How it was run: as §1
# [14] = molecular target: Gal(a1-4)Gal(b1-4)Glc
# How it was run: as §1
# [15] = molecular target: Gal(a1-4)Gal(b1-4)GlcNAc
# How it was run: as §1
# [16] = molecular target: Gal(a1-4)Gal(b1-4)GlcNAc(b1-2)Man(a1-3)[Gal(a1-4)Gal(b1-4)GlcNAc(b1-2)Man(a1-6)]Man(b1-4)GlcNAc(b1-4)GlcNAc
# How it was run: as §1
# [17] = molecular target: Gal(a1-4)Gal(b1-4)GlcNAc(b1-3)Gal(b1-4)Glc
# How it was run: as §1
# [18] = molecular target: Gal(a1-4)GlcNAc
# How it was run: as §1
# [19] = molecular target: Gal(a1-6)Glc
# How it was run: as §1
# [20] = molecular target: Gal(b1-2)Gal
# How it was run: as §1
# [21] = molecular target: Gal(b1-3)Gal
# How it was run: as §1
# [22] = molecular target: Gal(b1-3)Gal(b1-4)GlcNAc
# How it was run: as §1
# [23] = molecular target: Gal(b1-3)Gal(b1-4)GlcNAc(b1-2)Man(a1-3)[Gal(b1-3)Gal(b1-4)GlcNAc(b1-2)Man(a1-6)]Man(b1-4)GlcNAc(b1-4)GlcNAc
# How it was run: as §1
# [24] = molecular target: Gal(b1-3)GalNAc
# How it was run: as §1
# [25] = molecular target: Gal(b1-3)GalNAc(a1-3)[Fuc(a1-2)]Gal(b1-4)Glc
# How it was run: as §1
# [26] = molecular target: Gal(b1-3)GalNAc(a1-3)[Fuc(a1-2)]Gal(b1-4)GlcNAc
# How it was run: as §1
# [27] = molecular target: Gal(b1-3)GalNAc(b1-3)Gal(a1-4)Gal(b1-4)Glc
# How it was run: as §1
# [28] = molecular target: Gal(b1-3)GalNAc(b1-4)Gal(b1-4)Glc
# How it was run: as §1
# [29] = molecular target: Gal(b1-3)GalNAc(b1-4)[Neu5Ac(a2-3)]Gal(b1-4)Glc
# How it was run: as §1
# [30] = molecular target: Gal(b1-3)GlcNAc
# How it was run: as §1
binder,measurement,setting,value
B1,glycan array binding signal (z-score),[1],0.099
same,glycan array binding signal (z-score),[2],-1.37
same,glycan array binding signal (z-score),[3],0.69
same,glycan array binding signal (z-score),[4],-1.04
same,glycan array binding signal (z-score),[5],-1.42
same,glycan array binding signal (z-score),[6],0.203
same,glycan array binding signal (z-score),[7],-1.17
same,glycan array binding signal (z-score),[8],0.122
same,glycan array binding signal (z-score),[9],-1.19
same,glycan array binding signal (z-score),[10],1.1
same,glycan array binding signal (z-score),[11],-0.525
same,glycan array binding signal (z-score),[12],-0.109
same,glycan array binding signal (z-score),[13],5.23
same,glycan array binding signal (z-score),[14],-0.16
same,glycan array binding signal (z-score),[15],0.243
same,glycan array binding signal (z-score),[16],3.05
same,glycan array binding signal (z-score),[17],0.906
same,glycan array binding signal (z-score),[18],-0.886
same,glycan array binding signal (z-score),[19],-1.18
same,glycan array binding signal (z-score),[20],-1.33
same,glycan array binding signal (z-score),[21],-0.206
same,glycan array binding signal (z-score),[22],-1.56
same,glycan array binding signal (z-score),[23],-0.964
same,glycan array binding signal (z-score),[24],0.357
same,glycan array binding signal (z-score),[25],-0.01
same,glycan array binding signal (z-score),[26],-0.856
same,glycan array binding signal (z-score),[27],0.976
same,glycan array binding signal (z-score),[28],-0.081
same,glycan array binding signal (z-score),[29],1.86
same,glycan array binding signal (z-score),[30],0.373

# Fetched one by one from the entries so far:
binder,measurement,setting,value
B1,glycan array binding signal (z-score),[1],0.099
same,glycan array binding signal (z-score),[25],-0.01
